These are yes or no findings as the source states them, for the method shown. Binding seen in cells or lysates may run through a third protein. Some entries that bind do so weakly or less than the wild type.
Molecular target: HIF-1αR30A (UniProt Q16665)
Experiment: co-IP; nuclear fractions of GH3 cells (hypoxic); Protein G Dynabeads coupled to the primary antibody (anti-HIF-1α), overnight at 4 °C; immunoprecipitates blotted for Sp1; rabbit IgG as control

Chains of the proteins cited; added tags and fusions are not shown. Lines headed by an entry give the natural chain unless they say otherwise; changes in a name come on top.
UniProt Q16665: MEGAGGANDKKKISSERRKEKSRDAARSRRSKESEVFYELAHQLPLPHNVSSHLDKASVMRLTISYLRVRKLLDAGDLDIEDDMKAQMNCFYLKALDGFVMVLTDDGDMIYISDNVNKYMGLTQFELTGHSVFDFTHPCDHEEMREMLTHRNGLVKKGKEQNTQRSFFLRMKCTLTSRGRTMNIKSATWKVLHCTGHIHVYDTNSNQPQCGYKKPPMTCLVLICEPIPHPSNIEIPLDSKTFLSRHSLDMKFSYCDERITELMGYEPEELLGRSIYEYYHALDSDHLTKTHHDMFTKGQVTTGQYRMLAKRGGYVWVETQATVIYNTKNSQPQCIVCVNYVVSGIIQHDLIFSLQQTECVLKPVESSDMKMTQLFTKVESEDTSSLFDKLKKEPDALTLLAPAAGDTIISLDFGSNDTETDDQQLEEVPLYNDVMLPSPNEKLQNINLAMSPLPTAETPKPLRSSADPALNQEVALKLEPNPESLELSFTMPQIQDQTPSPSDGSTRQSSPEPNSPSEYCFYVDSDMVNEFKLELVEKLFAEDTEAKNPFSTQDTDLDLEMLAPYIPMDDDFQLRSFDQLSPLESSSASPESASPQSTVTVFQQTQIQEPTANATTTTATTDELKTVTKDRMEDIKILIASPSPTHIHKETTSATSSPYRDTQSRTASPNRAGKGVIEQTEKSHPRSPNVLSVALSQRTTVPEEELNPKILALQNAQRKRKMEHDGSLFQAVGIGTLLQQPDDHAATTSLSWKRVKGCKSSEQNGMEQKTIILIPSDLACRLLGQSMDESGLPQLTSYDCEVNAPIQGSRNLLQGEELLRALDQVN
UniProt Q01714: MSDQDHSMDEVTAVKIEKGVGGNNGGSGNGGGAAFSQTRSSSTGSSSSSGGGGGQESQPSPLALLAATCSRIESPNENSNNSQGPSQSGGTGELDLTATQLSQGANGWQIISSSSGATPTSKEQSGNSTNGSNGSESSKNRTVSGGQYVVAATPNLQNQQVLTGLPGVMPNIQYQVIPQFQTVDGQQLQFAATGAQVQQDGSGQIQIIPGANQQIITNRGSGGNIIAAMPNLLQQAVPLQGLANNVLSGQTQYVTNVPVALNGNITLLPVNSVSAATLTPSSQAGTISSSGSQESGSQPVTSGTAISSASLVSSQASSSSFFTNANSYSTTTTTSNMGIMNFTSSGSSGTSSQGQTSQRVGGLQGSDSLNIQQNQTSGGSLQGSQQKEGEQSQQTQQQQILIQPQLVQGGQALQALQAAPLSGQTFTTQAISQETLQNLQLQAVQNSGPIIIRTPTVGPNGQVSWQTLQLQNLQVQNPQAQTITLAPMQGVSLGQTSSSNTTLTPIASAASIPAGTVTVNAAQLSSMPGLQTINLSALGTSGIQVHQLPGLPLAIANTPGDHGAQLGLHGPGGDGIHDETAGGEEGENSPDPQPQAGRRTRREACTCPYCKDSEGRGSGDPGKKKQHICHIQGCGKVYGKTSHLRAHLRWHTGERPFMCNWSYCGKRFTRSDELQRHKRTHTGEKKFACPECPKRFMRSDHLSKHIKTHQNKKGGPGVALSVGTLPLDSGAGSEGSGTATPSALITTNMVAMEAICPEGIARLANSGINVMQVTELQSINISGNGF

## Sp1 (from UniProt Q01714 1-786)
  binding: binds

Source: PMC7160059
